PubChem BioAssay AID504444 (National Center for Advancing Translational Sciences (NCATS), 2011)
Screen size: about 360,000 compounds; about 7,500 (2.1%) were called active. The shares of active, inactive and inconclusive entries below differ from those in the screen. Calls follow the shape of the dose curve; as a rule, active = well fitted inhibition curve with a large enough effect; inconclusive = small, poorly fitted or top-dose-only effect, or effect the other way; inactive = flat fitted curve, though single readings scatter. Potencies beside an inconclusive call are fits to weak or partial responses and may not hold up.

assay: Nrf2 qHTS screen for inhibitors; details: A549 ARE-Fluc reporter, luciferase luminescence, 18-24 h; activity change, negative = inhibition: at 46 µM (top of the series); also: nearly all actives have a fitted effect of over 60% in size
Method in brief: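 A549 ARE_Fluc cells (5000/well, 5% FBS OPTI-MEM) pre-incubated 2 h, then treated with compounds 18-24 h at 37C/5% CO2 in concentration-response. CellTiter-Fluor viability read first; BugLite luciferase luminescence after 15 min at room temperature gives Nrf2 activity.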
% is scaled to controls: 0 for no effect and ±100 for the full control effect; potency is read from the fitted curve at half-maximal effect.

| SMILES | Potency | activity change, negative = inhibition |
| --- | --- | --- |
| CNc1cc2c(cc1S(=O)(=O)Nc1ccc(C)c(C)c1)CCC(=O)N2 | inconclusive: 7.31 µM [falling, partial curve] |  |
| CCOC(=O)c1ccc(NC(=O)c2ccc(OC(C)C)c(OC)c2)cc1 | inconclusive: 16.4 µM [activator, single point] |  |
| CC(=O)n1cc([C@@H]2C=C(C(=O)N3CCN(Cc4ccc5c(c4)OCO5)CC3)O[C@H](OCc3ccc(CO)cc3)C2)c2ccccc21 | inconclusive: 29.1 µM [falling, partial curve, poor fit] |  |
| Cc1ccc2nc(NC(=O)c3ccc(S(=O)(=O)N4CCCc5ccccc54)cc3)sc2c1 | inconclusive: 2.06 µM [falling, partial curve, poor fit] |  |
| c1cnc(Nc2nc(-c3ccc4ccccc4c3)cs2)nc1 | inconclusive: 9.2 µM [activator, partial curve, poor fit] |  |
| Brc1ccc(CSc2ccc3nnc(-c4cccnc4)n3n2)cc1 | inconclusive: 20.6 µM [falling, partial curve] |  |
| COc1cc(OC)cc(C(=O)Nc2ccc(S(=O)(=O)Nc3ccccn3)cc2)c1 | inconclusive: 4.61 µM [falling, partial curve, poor fit] |  |
| CCCCCOC(=O)C1=C(C)Nc2ncnn2C1c1cccs1 (configuration not stated) | inconclusive: 18.4 µM [falling, partial curve] |  |
| CCOC(=O)C1CCCN(c2c(C(=O)c3ccc(C)cc3)cnc3ccc(OCC)cc23)C1 (configuration not stated) | active: 23.1 µM |  |
| COc1ccc(CC(=O)Nc2ccc3nc(Nc4cccc(Cl)c4)cc(C)c3c2)cc1 | active: 25.9 µM |  |
| O=C(N/N=C/c1sc(N2CCOCC2)nc1-c1ccccc1)c1ccccc1O | active: 16.4 µM |  |
| Cc1ccc(S(=O)(=O)c2cc3cc(Br)ccc3oc2=O)cc1 | inconclusive: 0.92 µM [falling, full curve, poor fit] |  |
| O=C(Nc1nc(-c2ccc(Cl)s2)cs1)c1ccncc1 | inconclusive: 1.84 µM [falling, full curve, poor fit] |  |
| Cc1ccc(C(=O)N2CCN(c3ccc(NC(=S)NC(=O)c4cccs4)cc3)CC2)cc1 | inconclusive: 29.1 µM [falling, single point] |  |
| Cc1cc2c(s1)c1cnn(Cc3cc(F)ccc3C)c(=O)c1n2C |  | inactive: 5.09% |
| CCOC(=O)C1Sc2[nH]c(=O)sc2C(c2ccc(Cl)cc2)C1C(=O)OCC (configuration not stated) | inconclusive: 16.4 µM [falling, single point] |  |
| O=C(COC(=O)c1ccc(Br)o1)NCc1ccc(Cl)cc1 | inconclusive: 29.1 µM [activator, partial curve, poor fit] |  |
| COc1ccc(/C=C/C(=O)Nc2cc(C)on2)cc1 | inconclusive: 2.06 µM [activator, full curve] |  |
| CCOc1ccc(N(CC(=O)NCc2ccc3c(c2)OCO3)C(=O)c2csnn2)cc1 | inconclusive: 16.4 µM [activator, single point] |  |
| Cc1ccc2oc(-c3ccc(NC(=O)c4ccncc4)cc3O)nc2c1 | inconclusive: 20.6 µM [activator, single point] |  |
| Nc1c(C(=O)NCCc2ccccc2)nnn1CC(=O)Nc1ccc(Cl)cc1 | inconclusive: 0.82 µM [falling, full curve, poor fit] |  |

Complete entries, quoted from the list.
CCOc1ccc(N(CC(=O)NCc2ccc3c(c2)OCO3)C(=O)c2csnn2)cc1 is listed as Potency: inconclusive: 16.4 µM [activator, single point]
Cc1ccc(S(=O)(=O)c2cc3cc(Br)ccc3oc2=O)cc1 is listed as Potency: inconclusive: 0.92 µM [falling, full curve, poor fit]
CNc1cc2c(cc1S(=O)(=O)Nc1ccc(C)c(C)c1)CCC(=O)N2 is listed as Potency: inconclusive: 7.31 µM [falling, partial curve]
c1cnc(Nc2nc(-c3ccc4ccccc4c3)cs2)nc1 is listed as Potency: inconclusive: 9.2 µM [activator, partial curve, poor fit]

(listing goes on)

| SMILES | Potency | activity change, negative = inhibition |
| --- | --- | --- |
| CCOC(=O)c1nn(-c2ccc(F)cc2)c(-c2ccccc2)c1C(=O)c1ccccc1 | inconclusive: 23.1 µM [falling, single point] |  |
| O=C1/C(=C\c2ccc(Cl)c(Cl)c2)CN(C(=O)CCN2CCOCC2)C/C1=C/c1ccc(Cl)c(Cl)c1 | inconclusive: 29.1 µM [falling, single point] |  |
| C=Cc1ccc(Cn2c(C(=O)O)c(CNCCc3ccccc3)c3ccc(C)cc32)cc1 | inconclusive: 2.91 µM [falling, partial curve, poor fit] |  |
| COc1cc(NS(=O)(=O)c2ccc3[nH]c4c(c3c2)CCCC4)cc(OC)c1OC | inconclusive: 20.6 µM [falling, partial curve, poor fit] |  |
| Cc1ccccc1OCCCCn1c(C2CC(=O)N(c3ccccc3Cl)C2)nc2ccccc21 (configuration not stated) | inconclusive: 29.1 µM [falling, single point] |  |
| CSc1nc(C)cc(/C=C\c2ccccc2)c1C#N |  | inactive: -17.7% |
| CC(C)N(Cc1cn[nH]c1-c1ccc(-c2ccccc2)cc1)Cc1nccn1C | inconclusive: 29.1 µM [activator, single point] |  |
| O=C(COC(=O)/C=C/c1ccc2c(c1)OCO2)Nc1ccc(S(=O)(=O)N2CCCC2)cc1 | inconclusive: 4.11 µM [activator, full curve, poor fit] |  |
| CCNc1ccc(S(=O)(=O)N(C)C)cc1NCC(=O)Nc1ccc(F)c(Cl)c1 | inconclusive: 20.6 µM [falling, single point] |  |
| O=C(N/N=C\c1ccccn1)c1ccccc1O | inconclusive: 32.6 µM [falling, single point] |  |
| O=C(Oc1c(Cl)cc(Cl)c2cccnc12)c1cccc([N+](=O)[O-])c1 | inconclusive: 29.1 µM [falling, single point] |  |
| COc1ccc(C(=O)NCc2ccncc2)cc1OC | inconclusive: 32.6 µM [activator, partial curve, poor fit] |  |
| Cc1cccc(OCc2nc(-c3ccc(-n4cccc4)cc3)no2)c1 | inconclusive: 14.6 µM [falling, partial curve, poor fit] |  |
| Cc1oc2ncn(C)c(=O)c2c1C(=O)N(Cc1ccccc1)C(C)C | inconclusive: 5.8 µM [activator, partial curve] |  |
| Cc1ccc(Cl)cc1N1CCN(C(=O)c2ccc(CS(=O)(=O)c3ccc(Br)cc3)o2)CC1 | inconclusive: 4.61 µM [falling, full curve, poor fit] |  |
| Cc1cccc(C(=O)NCC(=O)NC2CCC(C)CC2)c1 (configuration not stated) | inconclusive: 25.9 µM [activator, single point] |  |
| CCc1cc2c3c(c1)C1(C(=O)N3C(C)(C)CC2C)C(C#N)=C(N)N2C(=C1C#N)Nc1ccccc12 (configuration not stated) | inconclusive: 29.1 µM [falling, single point] |  |
| Cc1c(C)n(Cc2ccccc2)c2ncnc(N)c12 | inconclusive: 1.3 µM [falling, partial curve, poor fit] |  |
| Cc1cccc(NC(=S)NCC23C=CC(O2)C2C(=O)N(c4ccc(Cl)cc4)C(=O)C23)c1 (configuration not stated) | inconclusive: 25.9 µM [falling, single point] |  |
| Cc1cccc(N2CCN(C(=O)CNC(=O)c3cccc([N+](=O)[O-])c3)CC2)c1C | active: 23.1 µM |  |
| Cc1ccc(NC(=O)CSC2=C(C#N)C(c3ccc4c(c3)OCO4)C3=C(CCCC3=O)N2)c(C)c1 (configuration not stated) | active: 11.6 µM |  |

| SMILES | Potency | activity change, negative = inhibition |
| --- | --- | --- |
| O=S(=O)(c1ccc(Cl)s1)N1CCC2(CC1)OCCO2 | inconclusive: 13 µM [falling, partial curve, poor fit] |  |
| Cc1ccc(CSc2nnc(CCCCCNC(=O)OC(C)(C)C)o2)cc1 | inconclusive: 29.1 µM [falling, single point] |  |
| COc1ccc(CCNC(=O)c2cc3c(-c4ccc(OC)c(OC)c4)nn(C)c3s2)cc1OC | inconclusive: 14.6 µM [falling, single point] |  |
| CC(C)=CCC/C(C)=C/CNC(=O)C[C@H]1C[C@H](C(=O)N2CCCCC2)[C@@]2(CCc3ccccc3)c3[nH]c4cc(CCC(=O)N(C)C)ccc4c3CCN2C1=O | inconclusive: 20.6 µM [falling, single point] |  |
| CCCCOc1ccc(CN(C)c2ncnc(N)n2)cc1 |  | inactive: -12.3% |
| Fc1cc(F)c2nc(Nc3nc4cc5c(cc4s3)OCO5)sc2c1 | inconclusive: 18.4 µM [activator, partial curve] |  |
| COc1ccc(NC(=O)Nc2c(SC)nsc2SC)cc1 | inconclusive: 0.0326 µM [falling, full curve, poor fit] |  |
| Cc1ncc(CN2CCC(C(=O)Nc3ccc(-n4cccn4)cc3)CC2)s1 |  | inactive: 2.22% |
| COc1cc(NC(=O)CN2C(=O)C(c3ccc(Cl)cc3)=NC23CCCCC3)cc(OC)c1 | inconclusive: 20.6 µM [falling, single point] |  |
| COc1ccc2c(=O)c(-c3ccccc3)coc2c1 | inconclusive: 5.17 µM [activator, partial curve] |  |
| O=C(c1cccc(C(F)(F)F)c1)N1CCc2c([nH]c3ccccc23)C1C(F)(F)F (configuration not stated) | inconclusive: 16.4 µM [activator, partial curve, poor fit] |  |
| Cc1cc2c(cc3c(SCc4cccc(F)c4)nnc(C)n32)o1 |  | inactive: 14.2% |
| Cc1ccc(-n2nc3ccc(N)cc3n2)cc1Cl | inconclusive: 1.3 µM [activator, full curve] |  |
| Cc1cccc(C(=O)N2CCC(N3CCN(Cc4ccc(F)cc4)C(=O)C3=O)CC2)c1 |  | inactive: 0% |
| Cc1ccc(NC(=O)C2CCN(S(=O)(=O)c3ccc4c(c3)NC(=O)C(C)S4)CC2)c(C)c1 (configuration not stated) | inconclusive: 18.4 µM [falling, single point] |  |
| Cc1ccc(Cn2cnc3c(cnn3C(C)(C)C)c2=O)cc1 | inconclusive: 7.31 µM [falling, single point] |  |
| O=c1c2c3c(sc2n(Cc2ccccc2F)c(=O)n1-c1ccc(Cl)cc1)CCCC3 |  | inactive: 3.8% |
| COc1ccc(NC(=O)CCc2nc3cccnc3n2-c2ccccc2)cc1Cl | inconclusive: 7.31 µM [falling, partial curve, poor fit] |  |
| CCCCCc1ccc(OCCCC[n+]2cccc(C)c2)c(CCCCC)c1 | inconclusive: 20.6 µM [falling, single point] |  |
| CCC(C)N(C(=O)CSc1nc(C)nc2ccccc12)C1CCS(=O)(=O)C1 (configuration not stated) | inconclusive: 23.1 µM [falling, single point] |  |
